{"source": "paper PMC12370185", "note": "The list shows a part of the results."}
{"system": "c-MYC + MAX + histone octamer", "experiment": "EMSA with sequencing", "conditions": "10 mM Tris-Cl pH 7.5, 50 mM NaCl, 1 mM DTT, 0.25 mg/ml BSA, 2 mM MgCl2, 0.025% Nonidet P-40, 5% glycerol; 28 nM nucleosome library; 10 min on ice then 30 min …; high values mean tight binding; double strand, one strand shown"}
{"sequence": "GATGGACCCTATACGCGGCTCCTCAAACCAGTGGCTTTGTTGGGTAGCACAAGGAGTTGGTCAAGAATATCAGCTGCCACACAGTCTTCAGTCCTGCTCATGAGCAGACAGGCGTACCACTTTTACTCAGATACCTAGCATTTCAATGCTCATTTAAATAATTCAGACTATACACATGTCTTAGCAGATTTTCCTCTTCCAGCCAACAATTGCCAGTCGGATAGTGTTCC", "binding signal (log2 relative supershift)": 0.398}
{"sequence": "GATGGACCCTATACGCGGCCAAACTGATTTTGGGAAGCAGTCTAGAAAGATGCTTGAAAAATGTACTGATGTGTAATGCCAGCAGCAGGCCATTGTCATGGTATGGAATAATGGTGACTGAAAGTCATTCTCCCTTGCTTGGGATGATCTGTCTTAAGCATGAGCAGCTTGAGGCTGAATTGTAGACAATAAAACGTGAGTCCAATGACATGCCAGTCGGATAGTGTTCC", "binding signal (log2 relative supershift)": 0.502}
{"sequence": "GATGGACCCTATACGCGGCCTCTGTCAGCCAGGCTGCCCTCCCTGCATTAGCCCTGTATCCAGGCTTCACTGCACATGGAAGCCCAGCCCCAACCCGCTGCCACTCCAGGTCAGTGGCAGGCCCTGCCCGGGGGACTGGGAGGTGGAGTCTATCAAGAGAGAGCTGGGTTGGGAGATGGATGTGCTGGGGGTGGCCTTGAAGACTTTGAATGCCAGTCGGATAGTGTTCC", "binding signal (log2 relative supershift)": 0.0958}
{"sequence": "GATGGACCCTATACGCGGCATGTGATAGTATTGGAATGCTATGATTGTTAATGTTGTGTCAACTTGAATGTGCCACAGGGTGCCCAGATTGAACATTATTTGGGGGTGTGTCTGTGAGGTTGTTCCCGATGAGATTAGCATTTGAATCAGTGGACTCAGAAAAGTTTCCCTCCCCATGTGAGTGGGCATCACCCAATCCATTGAAAGCCTTGCCAGTCGGATAGTGTTCC", "binding signal (log2 relative supershift)": 0.641}
{"sequence": "GATGGACCCTATACGCGGCCTGTTTGGAAATTCATCATGGTAGAATGGAAAACACACATGCTCTGTAGTCAAGCACATCTAAGTGCCTCTTCCATCACTTACTGTCTGCATGACCATAAATCAGTCTGTCTGAGCCTCAGTTTTCTCATCCACCAAATGAAAGTAACACCTGACTCATGGAGTTTTCCTGCTGATGATATAATGAGATGATGCCAGTCGGATAGTGTTCC", "binding signal (log2 relative supershift)": 0.296}
{"sequence": "GATGGACCCTATACGCGGCCAGGTCTCACTGTGCAAGGCAGGGATGCCCTGGGCTGTGGGAGCTGCCAGTGGGTGGGGCCTGCACACGTGGTCTGGGAGCAGTAACCCTGGAGACATCCTCTAGGCACGTGTGAGGCCTGGGAGACTCGGCAAGGAGGAGGGCTGAGAGCAGTGAAGTGTAGGGACAATGTATTAACAACAGGCTCAAACTGCCAGTCGGATAGTGTTCC", "binding signal (log2 relative supershift)": 0.414}
{"sequence": "GATGGACCCTATACGCGGCATTAGGTTTCAATGAGACCATAAGGGTGAGGCCTGCTATGGTCTGAATGTTTGTGTTCCCCCCAAATTCATATGCTGAAACCCAGTCACTAGTATGGTGACAGTAGGAGGTGGGGTCTTTGGGAGATGATTAGGTCATGAGAGCAGAGAGCTCATGAATAGGACTGGTGCCCTTATAAAAGAGGCCTCAGATGCCAGTCGGATAGTGTTCC", "binding signal (log2 relative supershift)": 0.564}
{"sequence": "GATGGACCCTATACGCGGCGTGTCCCTCTAGGGTGTGGCATAGTCTAACTGTCCTGCCAGAAGGGTCCAGGGTGTGGCTGGGTCTGAGCTAGTGGAGAACTGTGTGCATGCGATCAGGTGTGGGGACACAGTGCGTGTGTCCATGCATGCTCTTGTCAGAGAGAGGGTGATGGAGAGAGGAAGGAAGATCGAGAAAAACACAAAGACGTGTGCCAGTCGGATAGTGTTCC", "binding signal (log2 relative supershift)": 0.939}
{"sequence": "GATGGACCCTATACGCGGCATTTGGGCATGGGTACTGATCTCATACATCAAACACACAAGTACATACATACAATGCACACACACAAACTCAGGAACACCTCCATGAATGCTGACCACATGCACTTGCATATGCAAGCATCAGGCATGCGCACACCCCCACCACCACATTCATGTGCATATGCAGACATGCACATACATGTGCACCTCCATTGCCAGTCGGATAGTGTTCC", "binding signal (log2 relative supershift)": 0.841}
{"sequence": "GATGGACCCTATACGCGGCGTTTTTGTTGTTGGACTAAGATTGTATGTGACAGTGTTTGAGATTGTGCATGACAGTGTGTGTGATTATGTGAGACTGAGGGAGATGGTGTGACTTAGCACTGTATGTCATCCCGACAGTGAGTGTGACAGTGTGACTGAGAATGGCCTTATATGACCCATTGTGAGAGCAGGGCGGGCTACAATGTGGGGTGCCAGTCGGATAGTGTTCC", "binding signal (log2 relative supershift)": 0.448}
{"sequence": "GATGGACCCTATACGCGGCGCCTGATCTATGTGCCCCACGCTTGGCAATGGGACTGGATTGGAGGCAGAGGATATGCATCTGAAAGTCAAGATACTTGCCAAGAGGAGAGGGAGAGGTGTTGGTGATGCAACCAGAATATCCATTACAGTAAACCAATTGTCAGAGCTACAAACTCTTCGTTTAATAGTCTTCCTATAGTCTCAGTCTTGTGCCAGTCGGATAGTGTTCC", "binding signal (log2 relative supershift)": 0.361}
{"sequence": "GATGGACCCTATACGCGGCGCGGAAACCACCTCGACAGCCTCCAGAAAGGGGCGTGGCTGAAAATGTAGGGGCGTGGCCACGTGGGCATCAGGAAGAAGTAACCTGTTGAATCTATTTCTGCTCCCCACCCTTACTGCTTCCCATAAGGGGGAAGCCGCAGACTAATAAGCCTCTTCCAAAAAAGAGGTAAAGGGAGGTAGACAAGGGGCTGCCAGTCGGATAGTGTTCC", "binding signal (log2 relative supershift)": 0.23}
{"sequence": "GATGGACCCTATACGCGGCTAAATAAAACTGAGGTTATATAGTCATGCATTTAATAATAGTGATAGATGCAGGAGGCATGCAGATGCAGATAAGGAAACCTGCACAGGGTCTTGCCCGGGCGTGCCTGCAAGGGACTGGGGCCCACATGTGCACTAGGAGAAGGGGGTGGAGCCACCAAGAATTCATGCCTTATGCAGGGGAGGAGACTGTGCCAGTCGGATAGTGTTCC", "binding signal (log2 relative supershift)": 0.069}
{"sequence": "GATGGACCCTATACGCGGCCTAGAGCTGGTGGAGAGTCGGGAGAGGCAGCTGATCGGGCAGATAAGAGCAGATCATGTTGAGTCTTGTGCAGTTTGCGCAGAAGTTTGGATGTAACTCTGTAAGCATTAGAGAAATGTCATCTGGCAGCATTCATAGAAGCTATCACAAGAGGACCAGACAGAAGTCTGGTTTGAAACCAAGGCAACAACTGCCAGTCGGATAGTGTTCC", "binding signal (log2 relative supershift)": 0.635}
{"sequence": "GATGGACCCTATACGCGGCATGTCTCTTTTTTCAAAAAGCAGCTGACCACCCATTTCCTGGCCCCACCCCTCCCACATTCTTCCAGCACATGCTCCTGTCTCCCTTGTAGTGCTGAGCACTGCTGTGACTGTACAGGGGTTGGGCCCTGCTTTTGATTAGTGCCTGTTTCTTATTGTGAGTTCCAAGAGGACATGTTCCTTTTACTCTGTTGCCAGTCGGATAGTGTTCC", "binding signal (log2 relative supershift)": 0.522}
{"sequence": "GATGGACCCTATACGCGGCTTTGTGTGGATGTGGTTGGTCAGAAGGCTTTGTGTGCACTGTGACATCTTTATGCTGCAGATGCCAAGATCACAGGGTCCACACAGAGCAGTTCATTTCACACAGTGGGAAATGATGCGTGTGTGTGTGTGGGTGGGTGTGTGTGTGTGTTTTAAAAAACCTAAACAGAGCAACACTGTTCTGTGCACTCATGCCAGTCGGATAGTGTTCC", "binding signal (log2 relative supershift)": 0.455}
{"sequence": "GATGGACCCTATACGCGGCAGCCTGTCTGCAATTCTGCATCCACGTGCCTGCATGGTAATAACTGGCAGGAGCTGCACATGAGCTGCCTTTTGAGAAAGGGTCACACGCCCTTGAGTTCACTAGGTCCCCACCCAGCTGCTGTCTTACTCATCAACCTTTCCAACCAGGCCCTTGTTTGTTACCCTTGCGGCGGGGGAGGGGGGCGAAAATGCCAGTCGGATAGTGTTCC", "binding signal (log2 relative supershift)": 0.918}
{"sequence": "GATGGACCCTATACGCGGCAGGGGGACAATGTCAAAGGCACATGGAAGCTCCCCTTTTATTATTAGCTGGGTGTGTGCCCAGCTCCTCCCAAACAGAACAGGGCTGGGACTCGAGGTGGAGGCTGAGGCTTAACCCCCTCCCTGGTGCCATTGTCCTGCAGACAGCCAGAGGGAGGAGGCACCAGCCCAAGGGAGGAGGTATTAGCCCTCTGCCAGTCGGATAGTGTTCC", "binding signal (log2 relative supershift)": 0.895}
{"sequence": "GATGGACCCTATACGCGGCACAAGAAAGTAATCCACGGAAGGAACAAGAAGTGTCCTAAACAGTAGCAAACCTTACACATCAGGACAATCACACAGGCTCTGGTGTCAGATTCCAGCTTCAACCTCATCGGTGTGACCTCAAGCAACTCATGCGCCCTCTTTTTCTCATGTGAAGTGAGAATATCATTGGCCACACCAAGGGTAGCCTAGTGCCAGTCGGATAGTGTTCC", "binding signal (log2 relative supershift)": 0.0302}
{"sequence": "GATGGACCCTATACGCGGCGAAGACAGGGAAGAGAGGAGGGAGAGAAGGGTGACAGGGAGCTGGTTGAGGGAGGGGACACAGAGCAGGAGACAGAGGCCCCATGTGGATCAAAGGAGTGACAAGGGAGGGCCCATGCTCAGTGATATGAGAACAGCAAGAGGCAACAAACAAGATACAAAAGGATACACACTTCCATCCCATTCATGTACTGCCAGTCGGATAGTGTTCC", "binding signal (log2 relative supershift)": 0.182}
{"sequence": "GATGGACCCTATACGCGGCTTGCAGTCATTCTGTCATGTCACCCACTGAGGAGACTGCACACAAACTGCTTGAGGACAGGAGCTGTGTTATGCACACCTTTTGTCACTCATGACAGCCTGTTAACACACTGCCAGACACATAGCCAGTGCTCAATTACACGGCTGAGTAGGACAGACCACACAGTTATTACCCCCTTTGAGCACACCATTTGCCAGTCGGATAGTGTTCC", "binding signal (log2 relative supershift)": 0.347}
{"sequence": "GATGGACCCTATACGCGGCCTCCAACAGAAATCTCCACTCACAGGTGTCACAGCCCAAAGCTGTCTTTGTAATGGTGACCTCACCCTGGTATCACAGTGACTGTAAGGGAAAGAAAGCAGCTGCCACTTCCTGGTTCACTTTCAACACCAAGCTCTCCTGATTTTATGTGTTCATTCTTATTACTTTCTTTCCCTCTCACCCTACCATATTGCCAGTCGGATAGTGTTCC", "binding signal (log2 relative supershift)": 0.171}
{"sequence": "GATGGACCCTATACGCGGCATGAACATTCATTCGGGTGGCTGTCTTTGGGTGAACACATGGATGCATTTCTGGTGGGGGTGGAGTTGCCCGGTCATAAGGTATGTGCATGTTCACCTTGAGTAGATACTGCATAGCAGCGCAGTCCACCCAAAGCGGGTAGACAAATTTGCAATGCCATTGGCAGTGTGATGGGAGACACAGAAAGAGAGTGCCAGTCGGATAGTGTTCC", "binding signal (log2 relative supershift)": 0.584}
{"sequence": "GATGGACCCTATACGCGGCAACGTGAGGCAGGATGTTCATTTTCCTCTAGTAGCAGGTTCTGAGATAGTCTGTGTGTGATGTGCATGTGAATGAGTGGATGTGAGTGAGAATAGCAGGAGTGAGGGTAGGTTGCAGTTTTGATTACACGGGTGTAGACTGATTCTCTGAGGTCAGCTTTATGCACTGGGTTTTAACTTTGTGGAACCATATGCCAGTCGGATAGTGTTCC", "binding signal (log2 relative supershift)": 0.749}
{"sequence": "GATGGACCCTATACGCGGCTGCCTTTTTGAGAAGTAGACATATGTACTGGAGGCAACCTAGCTTGGTGTGATGAGCAACAGATTGGAACACAGAGCAGCACTAGGTGTACAGTGTCAGGAAGTCCAACTCAGTGGGTGTTTGTTATGCACAAGGAACTTTGACAGGCATTATTGTGGGAGAGGGTGGTTGAGGTGGATATAAGCATGAATTGCCAGTCGGATAGTGTTCC", "binding signal (log2 relative supershift)": 0.135}
{"sequence": "GATGGACCCTATACGCGGCTTCTGTCCTTGTTCCTCGTCCCATCTGGAGCATTTCCAATTCTGGTTTTGCGGAGCAGCAGGTCTGAGCTTGTCCGGCGAGGGTGGGAGTTGGTCCCGGCGGAGATCCAGTGGGAAGAGCCGGCGGCTGCCCGGGCGTGAGTAGACCGAGAATCCTGCCCGATCCCCGCCCCTGGGCTGGTGTCGCCCTGGTGCCAGTCGGATAGTGTTCC", "binding signal (log2 relative supershift)": 0.541}
